PubChem BioAssay AID743454, Peter MacCallum Cancer Centre – 2014
Assay: 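Genes whose loss kills vorinostat-resistant colon cancer cells under vorinostat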 (primary screen). System: human HCT116-VR colon cancer cells, selected for vorinostat resistance. Reagents: siRNA pool against human genes, 40 nM siRNA pool. Time to read-out: vorinostat for 24 h, read-out about 72 h after transfection. Conditions: vorinostat at 2.5 µM final. Measurement: 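Cell viability by CellTiter-Fluor and caspase 3/7 activity by luminescence, each scaled to mock wells per plate, duplicates averaged, then robust z-scored over all plates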. Scale: viability robust z-score: higher = more viable cells than screen typical; caspase robust z-score: higher = more caspase 3/7 activity than screen typical. Rule for the call: 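a knock-down is a hit when classed RV1 or RV2 for lowered viability, or CA1 or CA2 for caspase activation; those lethal without drug were dropped; hits were retested singly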.
This is a random part of about 18,000 deposited reagents. In the full data, 450 (2.5%) were called active. 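Single biological run; no consistent viability z cut-off exists, so the class columns, not z-scores, define the calls.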 Unmarked entries are inactive.

PKD1L1: viability hit class = no change; caspase hit class = no change; viability robust z-score = -0.34; caspase robust z-score = 0.04
RAB1B: viability hit class = no change; caspase hit class = no change; viability robust z-score = 0.94; caspase robust z-score = -0.13
ENAM: viability hit class = no change; caspase hit class = no change; viability robust z-score = 0.27; caspase robust z-score = -0.97
MAPKAPK2: viability hit class = no change; caspase hit class = no change; viability robust z-score = 0.51; caspase robust z-score = -0.09
OR4E2: viability hit class = no change; caspase hit class = no change; viability robust z-score = 0.43; caspase robust z-score = 0.2
HSPE1: viability hit class = no change; caspase hit class = no change; viability robust z-score = -0.52; caspase robust z-score = 0.22
TEDC2: viability hit class = no change; caspase hit class = no change; viability robust z-score = -2.06; caspase robust z-score = 0.55
GLDN: viability hit class = no change; caspase hit class = no change; viability robust z-score = 0.2; caspase robust z-score = -0.75
PPDPFL: viability hit class = no change; caspase hit class = no change; viability robust z-score = -0.01; caspase robust z-score = -0.44
SFXN1: viability hit class = no change; caspase hit class = no change; viability robust z-score = 0.42; caspase robust z-score = -0.64
GABRB1: viability hit class = no change; caspase hit class = no change; viability robust z-score = -0.67; caspase robust z-score = -0.5

Reformatted: results already given.
gene	viability hit class	caspase hit class	viability robust z-score	caspase robust z-score
HSPE1	no change	no change	-0.52	0.22
TEDC2	no change	no change	-2.06	0.55
GLDN	no change	no change	0.2	-0.75

Further records follow.
GPSM2: viability hit class = no change; caspase hit class = no change; viability robust z-score = 0.68; caspase robust z-score = -0.69
PGCKA1: viability hit class = no change; caspase hit class = no change; viability robust z-score = 0.75; caspase robust z-score = -1.13
TBCA: viability hit class = no change; caspase hit class = no change; viability robust z-score = -1.57; caspase robust z-score = 2.87
FAM120AOS: viability hit class = no change; caspase hit class = no change; viability robust z-score = 1.84; caspase robust z-score = 1.67
VIPR1: viability hit class = no change; caspase hit class = no change; viability robust z-score = 0.15; caspase robust z-score = -0.16
NR2F6: viability hit class = no change; caspase hit class = no change; viability robust z-score = 0.08; caspase robust z-score = 0.78
TAS1R3: viability hit class = no change; caspase hit class = no change; viability robust z-score = 0.18; caspase robust z-score = 0.57
TCEAL3: viability hit class = no change; caspase hit class = no change; viability robust z-score = 0.34; caspase robust z-score = 0.37
STXBP3: viability hit class = no change; caspase hit class = no change; viability robust z-score = 0.82; caspase robust z-score = 0.26
FGD3: viability hit class = no change; caspase hit class = no change; viability robust z-score = -0.76; caspase robust z-score = 0.55
